Laboratory results from patent US7932226B2, “NFκB transcriptional activity inhibitory agent and anti-inflammatory agent and a steroid action enhancing agent” (St. Marianna University School of Medicine, priority 2004, dated 2011).
At least one structure is not confirmed: it was looked up by name or label, or the drawing left a doubt.

What was measured:
[1] = tested on: transcriptional activity of NFκB; assay: NFκB-dependent luciferase assay in transfected COS-7 cells, TNFα-induced; type: cell-based; settings: TNFα 1 ng/ml plus steroid agent (TA) 120 nM, no MTI-II
Experimental: COS-7 cells were plated into a 6-well plate (Falcon, catalog number: 35-3046) at 3.5 to 3.8×10^5 cells per well and cultured in a DMEM supplemented with 10% 56° C.-inactivated FBS (fetal bovine serum; HyClone, catalog number: SH30070.03) under the conditions of 5% CO2 and 37° C. After 18 hours, the medium was replaced with a DMEM containing charcoal-dextran treated (C/D treatment) FBS (C/D-FBS, HyClone, catalog number: SH30068.03). Each of the plasmids constructed in Example 2 was mixed as shown in Table 1 and each sample was prepared to be 4.12 μg and each was mixed with TransFast (product name) reagent (12.3 μl) and the mixture was incubated for 10 to 15 minutes. After the medium in each well was replaced, each plasmid DNA was added to the respective wells according to the amount shown in Table 1 and incubation was carried out for 1 hour, thus each DNA was transfected into COS-7 cells. The transfection efficiency was 34%. To the cells into which DNA was transfected as described above, after 24 hours, an inflammatory cytokine (TNFα, Sigma) at a final concentration of 1 ng/ml and a steroid agent (triamcinolone acetonide: TA, Sigma) at a final concentration of 120 nM were added. Further, after an additional 24 hours, luciferase activities in the cells were assayed using Dual Luciferase Assay System (Promega) by a luminometer (Turner BioSystems TD-20/20, Promega). […]

[2] = tested on: transcriptional activity of NFκB; assay: NFκB luciferase assay in the presence of coactivator p300; type: cell-based; settings: p300 expressed, TNFα, steroid agent added, no MTI-II
Experimental: Then, in order to confirm the action site of MTI-II, the effect of MTI-II was investigated when a coactivator p300, which acts on the transcriptional activity of NFκB, was expressed.
A coactivator p300 expression plasmid (pCMVβ-p300) was purchased from Upstate. DNA transfection was carried out in the same manner as in Example 3 except that the amount of DNA was each 2.0 μg and the amount of pTri-NC or pTri-MTI was 1.0 μg. The NFκB transcriptional activity assay was carried out in the same manner as in Example 4.

**Q.** Which results are given for `CC1(C)O[C@@H]2C[C@H]3[C@@H]4CCC5=CC(=O)C=C[C@]5(C)[C@@]4(F)[C@@H](O)C[C@]3(C)[C@]2(C(=O)CO)O1` [steroid agent, triamcinolone acetonide, reference compound]?
**A.** transcriptional activity of NFκB [1]: inhibited; transcriptional activity of NFκB [2]: inhibited to about half
